Test results from PubChem BioAssay.
The other results are listed elsewhere or left out. These are further read-outs of the screen, such as a control signal, another cell line or another target. No call is given for them. For part of these data: Compounds called inactive in the main read-out are mostly missing here.

Tests used:
PubChem AID 1586 = settings: yeast two-hybrid polyglutamine protein interaction, reporter readout; measured here: averaged growth delta OD
[1] = selective SMN2 exon splicing luciferase activators – cell-based, SMN2/SMN1 luciferase reporters (AID 1598); settings: SMN2 vs SMN1 luciferase splicing reporter cells, at 10 µM; SMN1 luciferase ratio: measured here: SMN1 luciferase reporter average; SMN2 luciferase ratio: measured here: SMN2 luciferase reporter average, stronger effect = higher value
[2] = rescue of PC12 cells from polyQ htt toxicity – LDH release (AID 1610); settings: PC12 mutant huntingtin toxicity, final LDH at 4 uM, stronger effect = lower value

Row | Compound | signal change (36 h minus 0 h) (PubChem AID 1586) | SMN1 luciferase ratio [1] | SMN2 luciferase ratio [1] | normalised LDH release [2]
1 | CC(=O)Nc1nnc(S(N)(=O)=O)s1 | 0.118 | 1.02 | 0.89 | 0.984
2 | CC(C)(Sc1cc(C(C)(C)C)c(O)c(C(C)(C)C)c1)Sc1cc(C(C)(C)C)c(O)c(C(C)(C)C)c1 | 0.0992 | 0.93 | 0.9 | 0.587
3 | CO[C@@H]1[C@@H](OC(N)=O)[C@@H](O)[C@H](Oc2ccc3c(O)c(NC(=O)c4ccc(O)c(CC=C(C)C)c4)c(=O)oc3c2C)OC1(C)C | 0.149 | 0.9 | 0.98 | 0.964
4 | CN(C)C(=O)C(CCN1CCC(O)(c2ccc(Cl)cc2)CC1)(c1ccccc1)c1ccccc1 | 0.21 | 0.83 | 0.79 | 1.2
5 | CC12CCC(=O)C=C1CCC1C2[C@@H](O)CC2(C)C1CC[C@]2(O)C(=O)COP(=O)(O)O (stereo not given in full) | 0.0523 | 0.43 | 0.42 | 0.626
6 | CCC(=O)c1ccc2c(c1)N(CC(C)N(C)C)c1ccccc1S2 (stereo not given) | 0.177 | 0.86 | 1 | 0.767
7 | COc1cc(CNC(=O)CCCC/C=C/C(C)C)ccc1O | 0.096 | 0.9 | 0.78 | 0.896
8 | CC(=O)O[C@]1(C(C)=O)CCC2C3C=C(Cl)C4=CC(=O)[C@@H]5C[C@@H]5[C@]4(C)C3CC[C@@]21C (stereo not given in full) | 0.176 | 0.95 | 0.86 | 0.723
9 | O=c1cc(-c2ccccc2)oc2c(O)c(O)ccc12 | 0.149 | 1.01 | 0.82 | 0.318
10 | Oc1c(Cl)cc(Cl)c2cccnc12 | -0.0148 | 0.95 | 0.93 | 0.8
11 | O=c1cc(-c2ccccc2)oc2cc(O)cc(O)c12 | 0.193 | 1.14 | 1.3 | 0.748
12 | Cn1nnnc1SCC1=C(C(=O)O)N2C(=O)C(NC(=O)C(O)c3ccccc3)C2SC1 (stereo not given) | 0.083 | 0.88 | 0.92 | 0.909
13 | CC(=O)N[C@@H](CCC(=O)O)C(=O)O | 0.178 | 0.98 | 0.91 | 1.18
14 | CC1=C2C(=CO[C@H](C)[C@H]2C)C(=O)C(C(=O)O)=C1O | 0.188 | 0.95 | 0.89 | 1
15 | CN=C(N)NCCCC(N)C(=O)O (stereo not given) | 0.594 | 0.87 | 1.01 | 0.893
16 | CCN(CC)CCOc1ccc2c(c1)C(=O)c1cc(OCCN(CC)CC)ccc1-2 | 0.179 | 0.94 | 0.94 | 0.915
17 | NC(Cc1ccc(F)cc1)C(=O)O (stereo not given) | 0.167 | 0.88 | 0.86 | 0.924
18 | CC(C(=O)O)c1ccc(C(=O)c2cccs2)cc1 (stereo not given) | 0.0661 | 0.92 | 0.84 | 0.857
19 | COc1ccc([C@@H]2CC(=O)c3c(O)cc(O)cc3O2)cc1O | 0.349 | 1.47 | 1.35 | 0.966
20 | CC1CCC2(OC1)OC1CC3C4CC[C@H]5C[C@@H](O)CC[C@]5(C)C4CC(=O)[C@]3(C)C1C2C (stereo not given in full) | 0.204 | 0.85 | 0.95 | 0.468
21 | CCC(C)C(N)C(=O)N1CCCC1C(=O)NC(C(=O)O)C(C)CC (stereo not given) | 0.058 | 0.9 | 1.05 | 0.94
22 | CN(C)CCC=C1c2ccccc2CCc2ccccc21 | 0.274 | 0.92 | 0.9 | 1.03
23 | CC(=O)OCC(=O)[C@@]1(O)CC[C@H]2C3CCC4=CC(=O)CCC4(C)[C@@]3(F)[C@@H](O)CC21C (stereo not given in full) | 0.0992 | 0.91 | 0.92 | 0.341
24 | COC(=O)[C@H]1[C@H]2C[C@H]3c4[nH]c5cc(OC)ccc5c4CCN3C[C@H]2C[C@@H](OC(=O)c2cc(OC)c(OC)c(OC)c2)[C@@H]1OC | 0.163 | 0.87 | 0.95 | 0.577
25 | CC(N)C(=O)NC(Cc1ccccc1)C(=O)O (stereo not given) | 0.197 | 0.86 | 0.84 | 1.03
26 | CCCCCCOc1ccccc1C(N)=O | 0.112 | 1.01 | 0.94 | 0.892
27 | Cc1cc(/C=C/c2ccc3cc(N(C)C)ccc3[n+]2C)c(C)n1-c1ccccc1 | 0.034 | 0.24 | 0.28 | 0.146
28 | Cn1cc[nH]c1=S | 0.0447 | 0.9 | 0.91 | 0.887
29 | CCOC(=O)CCC(=O)O[C@H]1[C@H](O[C@@H]2[C@@H](C)[C@H](O[C@H]3C[C@@](C)(OC)[C@@H](O)[C@H](C)O3)[C@@H](C)C(=O)O[C@H](CC)[C@@](C)(O)[C@H](O)[C@@H](C)C(=O)[C@H](C)C[C@@]2(C)O)O[C@H](C)C[C@@H]1N(C)C | 0.199 | 0.89 | 0.93 | 0.751
30 | O=C(O)CCC(=O)OC[C@@H](NC(=O)C(Cl)Cl)[C@H](O)c1ccc([N+](=O)[O-])cc1 | 0.0818 | 0.85 | 0.87 | 0.956

Complete entries as entered above.
`O=c1cc(-c2ccccc2)oc2c(O)c(O)ccc12` is listed with signal change (36 h minus 0 h) (PubChem AID 1586): 0.149; SMN1 luciferase ratio [1]: 1.01; SMN2 luciferase ratio [1]: 0.82; normalised LDH release [2]: 0.318
`CC1=C2C(=CO[C@H](C)[C@H]2C)C(=O)C(C(=O)O)=C1O` is listed with signal change (36 h minus 0 h) (PubChem AID 1586): 0.188; SMN1 luciferase ratio [1]: 0.95; SMN2 luciferase ratio [1]: 0.89; normalised LDH release [2]: 1
